In PubChem BioAssay AID1347423 (Functional Genomics Laboratory (NCATS/FGL), 2020):
The campaign covered roughly 52,000 sequences. About 210 (0.4%) were called active.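 How the source made its calls: active means gene whose silencing raises cell survival under the drug, median off-target-corrected z-score across its silencing RNAs 2 or more; inactive means the rest.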 This is one part of the list.

Assay: Resistance to Poly (ADP-Ribose) Polymerase inhibitor: Gene Identification via Genome-wide siRNA Screen
Details: mouse BRCA2 R2336H ES cells, olaparib, CellTiter-Glo viability; active compounds read high
Summary of the method: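 Mouse BRCA2 R2336H ES cells were reverse-transfected with siRNA (20 nM final), treated at 48 h with 500 nM olaparib, and read by CellTiter-Glo after 72 h. Scores: MAD-based z per siRNA, median per gene, seed off-target correction.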
With CCCUCCUCUGUUGGAUCUUTT against Olfr912 the z-score was inactive: -2.44. For GGAUCAUGCAGACAUGCUGTT against Ggcx, the z-score was inactive: -0.92. For GCCUUAAGUGGAUUUAGGATT against Hist1h2ae, the z-score was inactive: 1.22. For GGAACUCUUUCUUCCAUGUTT against Olfr1495, the z-score was inactive: -0.54. For CCCGUCCUGCUAAAUGGUGTT against Usp42, the z-score was inactive: -0.738. In the case of “GCAAUGGUUCAGUAUGUACTT against 5730494M16Rik”, the z-score is reported as inactive: -0.902. In the case of GCUUUGGUGCACUUGCUUUTT against Akr1c13, the z-score is reported as inactive: -0.103. With GGAUGAUGGUGUCUACUCUTT against Fibcd1 the z-score was inactive: -1.85. With GGAACAUCUGCAUCUGGAUTT against AL024210 the z-score was inactive: 1.37. In the case of GGGUAAUGCUGACUACAGGTT against MGC65590, the z-score is reported as inactive: -1.89. In the case of GGCAGAGAUGCUUUAUAAATT against Harsl, the z-score is reported as inactive: -0.48. With “GGAUAUCCGCCUCACUCUUTT against 2010204I15Rik” the z-score was inactive: -0.045. With “GGAUAUCUGUUGCAUGGCATT against 5730444A13Rik” the z-score was inactive: -2.31. In the case of GGUUGGAGUUGAUUUUAAUTT against Zmym1, the z-score is reported as inactive: 0.101. In the case of “GCAGAUGACCAUUGGUUAATT against 2610301B20Rik”, the z-score is reported as inactive: -0.36. In the case of GCCCUUUGGAUAACAGUGATT against Sufu, the z-score is reported as inactive: -0.968. In the case of “CGAUAUCUCGAAAAUUUCATT against 1500002I11Rik”, the z-score is reported as inactive: 0.325. In the case of GCUUGUGAAUUAAUGAACATT against Farslb, the z-score is reported as inactive: -2.89. For “CGAAGUUAUGCCCAGAAUGTT against 2010321M09Rik”, the z-score was inactive: 0.0597. For GCAACUCAAUGACCUGAAATT against Ifnab, the z-score was inactive: -2.91. In the case of GGGUCUCAAAAGAGCAGGUTT against Neurl, the z-score is reported as inactive: 0.913. For GCGAAUAAACCACUUGUUGTT against Pum2, the z-score was inactive: 0.225. In the case of GGAAUUUCAAAGAGACAAATT against Cyfip1, the z-score is reported as inactive: -0.82. With GGGUCCAGUUUAAGACAUATT against Lypla2 the z-score was inactive: -1.59. For GCGUGAUCAUUGAUGUGGATT against Slc5a7, the z-score was inactive: -0.93. In the case of GGAGAUGAAGCUCUGGAUATT against Spock2, the z-score is reported as inactive: -0.176. In the case of GGAAAUGUUUACCUGCCAUTT against Zfp512, the z-score is reported as inactive: -0.832. For GGACGAAAAGAAGUGUUUCTT against Lamb2, the z-score was inactive: 1.41. In the case of GGAACUCUGGAAUAAUCUGTT against Siat7b, the z-score is reported as inactive: -0.907. For GCCCGGUCCUUUACUACAUTT against Sdk1, the z-score was inactive: -0.266. For “CGUACAGAGACAUCUUGAUTT against 5133401N09Rik”, the z-score was inactive: 0.587. With “GGAACCAGGUAGCAGAUCUTT against D19Ertd144e” the z-score was inactive: -3.39. In the case of GGUAAAAAGUACAAGUGGGTT against Slc17a5, the z-score is reported as inactive: 1.76. For CCAUGCGAAAGAGUAUAAATT against BC060632, the z-score was inactive: -0.343. For “CCAAUAGAGAAACUUUCUCTT against 1110008L20Rik”, the z-score was inactive: -0.39. For GGCUGAGAAGACUUUCAGUTT against Trappc4, the z-score was inactive: -0.332. With CGCCAGAAAGCUUCUAUGATT against Gucy2c the z-score was inactive: 1.84. In the case of GCUAUCGGACUGUGUGCUGTT against Rpl41, the z-score is reported as inactive: -1.14. With GGAGAAUGUGGCUUCCUGATT against Clrf the z-score was inactive: -0.333. For CCAUAUGUGCUCACCUUUATT against Marveld2, the z-score was inactive: 0.264. With AUCGUGUUUGCUGUAUUUGTT against Olfr1258 the z-score was inactive: -0.0864. For GGUCCCAGAAAGUAGGCAUTT against Prss22, the z-score was inactive: 0.579. For GGAACUUAUCCUUCUUAGATT against Olfr713, the z-score was inactive: 0.867. For GGUAAAUGAGAUCAACUUCTT against Dvl3, the z-score was inactive: 1.17. With GGAUACAGGAGGAAGAAAATT against AW319487 the z-score was inactive: -0.203. For CCUGCGCUUCUGACUAUCUTT against Dcbld1, the z-score was inactive: -0.234. In the case of “GGGCAAGAAGGUAGACAUUTT against 0610010D20Rik”, the z-score is reported as inactive: -1.55. With GGCUUUAAGGCUAGCAGUUTT against Pex11a the z-score was inactive: 1.24. For “GGAGACUUAUUGAGCAAGUTT against E430004F17Rik”, the z-score was inactive: 0.366. With GGUCGUGUUCGAGCAAACCTT against Tpi1 the z-score was inactive: 1.03. In the case of CGUGUAGAUUACAAGAAUGTT against Mrps18c, the z-score is reported as inactive: -0.303. With “GGCCUGAACACACUGACAATT against 1200008A14Rik” the z-score was inactive: -1.14. In the case of GGUAGUCUCUGCCACCAAUTT against Mrps11, the z-score is reported as inactive: -2.5. In the case of CGUACCAUGGUCAAGACGUTT against Tpcn1, the z-score is reported as inactive: 1.09. For GCACAGUGGUAAUUCUUUATT against Snapc3, the z-score was inactive: 1.41. With “GGAAGACCUGAACAAACUGTT against 1500031L02Rik” the z-score was inactive: -0.242. For GGUGGAAGUGAAGAAGCGATT against AV216087, the z-score was inactive: -1.03. In the case of GGUAUGAUGCACUUUCUGATT against Zhx1, the z-score is reported as inactive: 0.455. With GCCCAUUGACGUAAUUCUCTT against V1ri3 the z-score was inactive: -0.182. For GGAACAUACUGCUAAUAUGTT against C6.1A, the z-score was inactive: -0.509. With “GUUUUCAGAGCUCUGCAUUTT against 2610510H03Rik” the z-score was inactive: 0.0133. In the case of GGAGAGUAUCUGAAGUUUCTT against Jak2, the z-score is reported as inactive: 1.31. In the case of “GCCGACAAGAGAUACAUGATT against 1600013P15Rik”, the z-score is reported as inactive: -0.0259. For GGUGGACUCUGACAUAACATT against Iigp1, the z-score was inactive: 0.698. For GGAGGUAGAGGAGUUGGAGTT against Zyx, the z-score was inactive: -1.83. In the case of GGCUCACAGUUACCAUCUCTT against Lipe, the z-score is reported as inactive: 0.275. For GCAUAUUGGAACUACUGGGTT against Olfr986, the z-score was inactive: -0.929. With GCCACAGGAUGCUAGCAAATT against Bex2 the z-score was inactive: -0.617. For CGUGGUGAUUAUGCUUCUATT against Rab37, the z-score was inactive: 0.706. With “GCCAUAGGAGUGAUUGGAUTT against E130018O15Rik” the z-score was inactive: -0.35. For GGCGACAUGAAAGAAGGCATT against Prss18, the z-score was inactive: -1.27. For GCCAUAUGAUAAUAUAGAGTT against AI595338, the z-score was inactive: 0.747. In the case of GCUCAUCAAGCUGUACCUATT against Eif2b1, the z-score is reported as inactive: -0.0934. For “CUUAGCUACUUCAAGGUCATT against C630041L24Rik”, the z-score was inactive: 0.262. For GGAUGCCUAUCACAAGCAGTT against Pacsin1, the z-score was inactive: 1.33. With GCCACACGUGUGCAAAGAUTT against Zfp524 the z-score was inactive: 0.61. For CCAUCAUGCCCUGUUUGCATT against Cdc42ep3, the z-score was inactive: 0.371. For CCAUAUGGCUUAUCUUAUUTT against Adam5, the z-score was inactive: -0.215. For “CCUAUGAACCCUAGGGUACTT against A230058J24Rik”, the z-score was inactive: -0.043. In the case of GGUGGUGAUACGUACAGAATT against A2m, the z-score is reported as inactive: 1.18. In the case of GGCAUCUUCGUCUUCAUGCTT against Rnf122, the z-score is reported as inactive: -1.75. With GCUCUAAGUUUCCUCAUGGTT against Pkig the z-score was inactive: -0.952. For GGUCCUAUUUCGGAGCUUUTT against Tnfsf14, the z-score was inactive: -1.18. With “GGAGGGUUUGCUUGAUGUUTT against 6430598A04Rik” the z-score was inactive: -1.33. With “GGUGGUGGCUCUCAACUUATT against A230020G22Rik” the z-score was inactive: 1.28. With “GCCUUGCAUGACAGUUGUCTT against 2210016L21Rik” the z-score was inactive: -1.14. In the case of “GGGCAAGAACAACUCACUUTT against 4933404G15Rik”, the z-score is reported as inactive: -1.42. With GGCACCGCUAUUCAGAAUUTT against Fgf23 the z-score was inactive: 0.09. In the case of CACCAAGGUCUGAGUACCUTT against LOC434459, the z-score is reported as inactive: 0.257. With GCCGCUUUAAGAUUCCCACTT against Pde1b the z-score was inactive: 0.362. With GGUACAGUAUGUGAUUCAATT against Bre the z-score was inactive: 0.743. In the case of “GCUACAGUUACUUAAAUGATT against 4921508O11Rik”, the z-score is reported as inactive: -0.463. In the case of “CGCAGAACCCUGGUUUCUATT against D030016E14Rik”, the z-score is reported as inactive: -0.495. For CGGAUGCCAUGCAGAACUATT against Tm4sf2, the z-score was inactive: -1.3. In the case of CGGAUGCACUUCUCCAAAATT against Tram1, the z-score is reported as inactive: 1.11. With GGCAAAAGCGAAGAAUUUATT against E2f5 the z-score was inactive: 0.522. For CCAUUAUGUCGAUUCUAUCTT against Ndph, the z-score was inactive: -0.686. With GGUACUGGAGCAAUUGGCATT against Bpil2 the z-score was inactive: -0.121. With CCUCCACUUACUUUGGGUGTT against Cic the z-score was active: 1.48. With CGUUCAUGUUGUAAGUAUCTT against Olfr1196 the z-score was inactive: 0.144. With GGCCCUCAUCUUCAACAAGTT against BC036333 the z-score was inactive: 0.891. In the case of “CCCAAAUCUGGUUCUCAAGTT against A630001O12Rik”, the z-score is reported as inactive: 0.504. In the case of GGACUGUACAGUGGCAUUATT against Tnfsf7, the z-score is reported as inactive: -0.292.
